From the supplement of paper PMC10849652
The other results are listed elsewhere or left out.

Amino acid sequences for entries named in this document (tags omitted). A change or cut given only in a name is not applied to a line headed by its entry.
UniProt Q9Y5J7: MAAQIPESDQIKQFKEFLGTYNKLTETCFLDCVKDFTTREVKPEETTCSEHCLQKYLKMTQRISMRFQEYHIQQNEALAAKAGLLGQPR
UniProt Q9Y4P3: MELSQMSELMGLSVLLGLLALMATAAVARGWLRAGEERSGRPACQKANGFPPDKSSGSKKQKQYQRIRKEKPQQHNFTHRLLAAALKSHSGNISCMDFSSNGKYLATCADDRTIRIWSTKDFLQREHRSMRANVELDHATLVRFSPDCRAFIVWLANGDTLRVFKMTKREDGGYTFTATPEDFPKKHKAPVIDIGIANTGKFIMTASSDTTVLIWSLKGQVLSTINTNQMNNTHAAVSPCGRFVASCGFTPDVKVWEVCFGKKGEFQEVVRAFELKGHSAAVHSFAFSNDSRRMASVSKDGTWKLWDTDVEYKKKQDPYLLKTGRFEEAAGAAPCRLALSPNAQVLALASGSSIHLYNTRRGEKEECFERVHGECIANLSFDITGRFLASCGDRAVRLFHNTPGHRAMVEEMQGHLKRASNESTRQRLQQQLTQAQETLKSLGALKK
UniProt P10646, whole entry, looked up: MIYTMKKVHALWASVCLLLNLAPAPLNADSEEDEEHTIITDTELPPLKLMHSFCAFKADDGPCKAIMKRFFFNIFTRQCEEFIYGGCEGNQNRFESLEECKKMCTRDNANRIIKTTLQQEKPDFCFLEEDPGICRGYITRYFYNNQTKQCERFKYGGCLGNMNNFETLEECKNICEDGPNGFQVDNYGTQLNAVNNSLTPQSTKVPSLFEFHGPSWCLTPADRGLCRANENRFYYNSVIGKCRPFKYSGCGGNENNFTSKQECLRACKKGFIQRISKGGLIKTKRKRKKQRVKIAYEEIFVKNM
UniProt Q96BZ9: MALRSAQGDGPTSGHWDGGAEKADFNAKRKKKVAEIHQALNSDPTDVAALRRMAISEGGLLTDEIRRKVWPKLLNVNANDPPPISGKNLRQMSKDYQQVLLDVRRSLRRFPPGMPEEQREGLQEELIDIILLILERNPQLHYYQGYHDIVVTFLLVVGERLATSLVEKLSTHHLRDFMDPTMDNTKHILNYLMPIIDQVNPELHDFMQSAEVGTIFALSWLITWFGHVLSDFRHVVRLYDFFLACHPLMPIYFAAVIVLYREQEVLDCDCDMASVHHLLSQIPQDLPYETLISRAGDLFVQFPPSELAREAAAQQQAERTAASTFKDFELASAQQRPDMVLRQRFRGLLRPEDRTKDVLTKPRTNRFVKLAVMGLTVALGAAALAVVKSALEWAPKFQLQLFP
UniProt O00142: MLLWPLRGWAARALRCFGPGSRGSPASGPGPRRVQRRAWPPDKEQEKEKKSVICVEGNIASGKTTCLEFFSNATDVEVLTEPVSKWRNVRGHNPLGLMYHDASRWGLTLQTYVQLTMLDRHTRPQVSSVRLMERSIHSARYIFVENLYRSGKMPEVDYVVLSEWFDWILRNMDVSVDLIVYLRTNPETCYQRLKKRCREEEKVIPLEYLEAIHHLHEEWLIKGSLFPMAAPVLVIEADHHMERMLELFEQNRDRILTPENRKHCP
UniProt Q9NWX6: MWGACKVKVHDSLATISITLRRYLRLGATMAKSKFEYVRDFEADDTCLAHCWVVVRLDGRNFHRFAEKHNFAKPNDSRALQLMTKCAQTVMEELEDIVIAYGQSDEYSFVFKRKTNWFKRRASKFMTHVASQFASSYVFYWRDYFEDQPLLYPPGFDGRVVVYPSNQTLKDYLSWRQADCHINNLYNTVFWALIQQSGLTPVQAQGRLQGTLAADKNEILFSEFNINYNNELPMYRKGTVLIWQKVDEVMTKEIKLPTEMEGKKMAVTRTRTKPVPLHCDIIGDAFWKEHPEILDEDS
UniProt P07996: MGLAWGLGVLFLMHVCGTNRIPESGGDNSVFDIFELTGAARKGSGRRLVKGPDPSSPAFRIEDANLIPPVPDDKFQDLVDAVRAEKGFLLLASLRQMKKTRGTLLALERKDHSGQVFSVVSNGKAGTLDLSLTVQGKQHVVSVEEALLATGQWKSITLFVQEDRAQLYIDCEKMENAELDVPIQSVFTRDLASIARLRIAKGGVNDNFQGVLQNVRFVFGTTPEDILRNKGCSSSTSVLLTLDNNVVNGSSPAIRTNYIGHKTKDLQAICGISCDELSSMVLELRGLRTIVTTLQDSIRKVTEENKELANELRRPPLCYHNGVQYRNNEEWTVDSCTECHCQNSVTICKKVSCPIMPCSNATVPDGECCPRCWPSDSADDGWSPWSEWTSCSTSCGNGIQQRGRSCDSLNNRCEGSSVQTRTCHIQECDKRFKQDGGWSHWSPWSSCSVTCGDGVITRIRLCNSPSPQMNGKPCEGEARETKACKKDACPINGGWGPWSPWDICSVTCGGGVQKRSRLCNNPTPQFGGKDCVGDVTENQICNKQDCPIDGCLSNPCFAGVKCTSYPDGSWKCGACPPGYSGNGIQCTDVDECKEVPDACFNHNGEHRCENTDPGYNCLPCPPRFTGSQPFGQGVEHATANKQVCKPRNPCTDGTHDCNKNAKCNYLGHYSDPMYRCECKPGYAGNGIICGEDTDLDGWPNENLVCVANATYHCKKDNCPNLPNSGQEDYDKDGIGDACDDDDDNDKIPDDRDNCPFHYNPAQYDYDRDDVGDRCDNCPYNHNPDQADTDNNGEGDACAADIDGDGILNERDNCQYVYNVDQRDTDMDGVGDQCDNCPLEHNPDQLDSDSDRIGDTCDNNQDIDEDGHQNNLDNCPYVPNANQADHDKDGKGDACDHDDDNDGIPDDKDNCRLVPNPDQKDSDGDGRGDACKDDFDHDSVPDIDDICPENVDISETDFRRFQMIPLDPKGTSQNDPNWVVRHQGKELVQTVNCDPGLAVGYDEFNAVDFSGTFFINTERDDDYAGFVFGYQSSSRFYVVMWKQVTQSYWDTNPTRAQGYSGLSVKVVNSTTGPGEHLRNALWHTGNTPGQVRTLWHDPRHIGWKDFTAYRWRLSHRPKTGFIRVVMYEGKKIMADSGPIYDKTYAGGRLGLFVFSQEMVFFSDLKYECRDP
UniProt Q9BV44: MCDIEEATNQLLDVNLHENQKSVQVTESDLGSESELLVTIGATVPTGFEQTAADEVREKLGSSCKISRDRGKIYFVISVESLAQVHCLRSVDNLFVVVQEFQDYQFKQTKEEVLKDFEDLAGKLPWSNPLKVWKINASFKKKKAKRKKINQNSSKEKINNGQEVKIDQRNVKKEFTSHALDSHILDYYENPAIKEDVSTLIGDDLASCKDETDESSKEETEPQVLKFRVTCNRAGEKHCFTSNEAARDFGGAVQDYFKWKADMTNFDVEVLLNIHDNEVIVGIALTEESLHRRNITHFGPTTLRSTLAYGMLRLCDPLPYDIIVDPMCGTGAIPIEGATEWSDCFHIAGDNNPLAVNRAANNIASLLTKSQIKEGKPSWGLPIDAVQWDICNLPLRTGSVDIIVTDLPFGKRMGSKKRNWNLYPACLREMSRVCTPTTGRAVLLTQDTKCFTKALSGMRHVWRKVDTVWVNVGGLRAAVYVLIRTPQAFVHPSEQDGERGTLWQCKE
UniProt Q92734, whole entry, looked up: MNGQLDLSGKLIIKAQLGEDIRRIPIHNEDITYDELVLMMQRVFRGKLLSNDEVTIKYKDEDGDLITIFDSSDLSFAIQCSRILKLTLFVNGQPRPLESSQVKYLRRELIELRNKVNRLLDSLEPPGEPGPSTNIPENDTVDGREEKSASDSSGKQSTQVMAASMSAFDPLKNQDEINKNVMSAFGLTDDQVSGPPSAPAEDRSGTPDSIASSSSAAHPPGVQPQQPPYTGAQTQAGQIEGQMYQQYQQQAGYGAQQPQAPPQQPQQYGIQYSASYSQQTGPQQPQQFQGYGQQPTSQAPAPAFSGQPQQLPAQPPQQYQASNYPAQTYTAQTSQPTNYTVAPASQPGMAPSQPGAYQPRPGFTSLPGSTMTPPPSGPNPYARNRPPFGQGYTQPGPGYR
UniProt Q00059: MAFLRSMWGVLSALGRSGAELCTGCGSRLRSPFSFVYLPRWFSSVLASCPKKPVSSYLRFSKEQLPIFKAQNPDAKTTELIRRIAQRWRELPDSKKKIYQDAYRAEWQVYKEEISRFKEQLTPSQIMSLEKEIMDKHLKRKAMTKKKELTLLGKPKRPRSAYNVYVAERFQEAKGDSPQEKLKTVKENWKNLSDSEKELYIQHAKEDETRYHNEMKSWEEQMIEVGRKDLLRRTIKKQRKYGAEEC
UniProt Q15582: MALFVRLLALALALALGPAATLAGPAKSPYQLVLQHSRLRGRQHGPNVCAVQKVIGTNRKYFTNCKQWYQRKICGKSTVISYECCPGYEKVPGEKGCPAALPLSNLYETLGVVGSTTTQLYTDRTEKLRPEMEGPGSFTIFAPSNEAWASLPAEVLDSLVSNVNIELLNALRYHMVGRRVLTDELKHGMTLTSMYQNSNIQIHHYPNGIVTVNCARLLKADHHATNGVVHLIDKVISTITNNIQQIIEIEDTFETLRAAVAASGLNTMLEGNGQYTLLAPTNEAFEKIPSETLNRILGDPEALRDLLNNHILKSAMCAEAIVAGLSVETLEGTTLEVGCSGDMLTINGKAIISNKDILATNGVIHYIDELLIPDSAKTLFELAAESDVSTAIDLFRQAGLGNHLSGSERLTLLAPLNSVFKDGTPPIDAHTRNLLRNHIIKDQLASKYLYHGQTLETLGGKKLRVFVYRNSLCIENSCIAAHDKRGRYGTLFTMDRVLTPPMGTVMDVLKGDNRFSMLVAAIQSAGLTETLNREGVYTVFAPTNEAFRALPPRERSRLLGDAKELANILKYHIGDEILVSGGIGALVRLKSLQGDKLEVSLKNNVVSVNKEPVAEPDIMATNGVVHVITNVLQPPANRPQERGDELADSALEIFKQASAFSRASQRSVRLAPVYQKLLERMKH
UniProt Q86W42: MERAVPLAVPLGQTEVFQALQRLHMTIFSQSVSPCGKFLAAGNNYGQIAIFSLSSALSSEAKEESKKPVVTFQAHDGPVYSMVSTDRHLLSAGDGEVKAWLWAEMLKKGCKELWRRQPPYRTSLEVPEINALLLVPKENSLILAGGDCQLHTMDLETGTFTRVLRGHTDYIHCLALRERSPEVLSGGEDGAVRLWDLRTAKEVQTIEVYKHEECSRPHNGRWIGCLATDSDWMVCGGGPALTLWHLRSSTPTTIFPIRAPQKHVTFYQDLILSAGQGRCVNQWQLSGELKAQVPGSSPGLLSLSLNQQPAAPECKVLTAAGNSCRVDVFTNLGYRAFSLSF
UniProt O75347: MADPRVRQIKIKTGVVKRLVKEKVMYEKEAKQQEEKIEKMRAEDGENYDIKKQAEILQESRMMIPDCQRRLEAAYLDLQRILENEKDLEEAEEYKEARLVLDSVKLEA
UniProt Q9HA65: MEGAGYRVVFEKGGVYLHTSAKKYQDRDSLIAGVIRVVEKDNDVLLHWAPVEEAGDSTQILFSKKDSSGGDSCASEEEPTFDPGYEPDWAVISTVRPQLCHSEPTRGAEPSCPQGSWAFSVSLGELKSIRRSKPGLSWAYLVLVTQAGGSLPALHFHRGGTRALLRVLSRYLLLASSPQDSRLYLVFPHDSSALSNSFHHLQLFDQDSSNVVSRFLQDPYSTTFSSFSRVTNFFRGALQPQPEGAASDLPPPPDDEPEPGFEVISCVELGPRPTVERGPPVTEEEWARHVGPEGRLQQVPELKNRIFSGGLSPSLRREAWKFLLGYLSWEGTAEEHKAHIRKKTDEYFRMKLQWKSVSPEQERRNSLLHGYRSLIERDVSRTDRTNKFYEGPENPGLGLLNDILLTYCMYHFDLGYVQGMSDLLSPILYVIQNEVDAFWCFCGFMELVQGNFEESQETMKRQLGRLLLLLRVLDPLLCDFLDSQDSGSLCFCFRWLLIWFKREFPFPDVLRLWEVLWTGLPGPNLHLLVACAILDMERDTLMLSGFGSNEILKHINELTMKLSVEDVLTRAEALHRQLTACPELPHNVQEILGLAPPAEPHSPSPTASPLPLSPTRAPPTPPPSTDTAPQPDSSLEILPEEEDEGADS
UniProt Q9NUJ3: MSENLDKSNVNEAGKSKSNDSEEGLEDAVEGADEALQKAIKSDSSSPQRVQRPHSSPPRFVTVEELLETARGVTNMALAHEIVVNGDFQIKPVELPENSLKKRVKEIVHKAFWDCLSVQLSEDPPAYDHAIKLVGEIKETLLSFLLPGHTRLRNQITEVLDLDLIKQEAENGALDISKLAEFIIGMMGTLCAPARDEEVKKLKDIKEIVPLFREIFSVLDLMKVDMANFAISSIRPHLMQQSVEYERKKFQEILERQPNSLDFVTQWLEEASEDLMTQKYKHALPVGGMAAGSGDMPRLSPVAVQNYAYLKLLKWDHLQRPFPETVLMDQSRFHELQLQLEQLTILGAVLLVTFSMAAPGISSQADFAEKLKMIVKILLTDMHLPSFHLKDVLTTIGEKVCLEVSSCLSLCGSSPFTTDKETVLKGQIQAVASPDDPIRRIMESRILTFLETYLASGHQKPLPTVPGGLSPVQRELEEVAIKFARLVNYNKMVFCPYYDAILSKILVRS

Columns and labels:
Assay in all cases: log2 fold change, soluble protein after heating vs DMSO (PISA); higher = thermal stabilisation; K562 cells, 10 uM, 30 min; active = over 0.2 and 3.5 SD of the protein, either way, in both replicates (recomputed)
bafetinib = compound: Cc1ccc(NC(=O)c2ccc(CN3CC[C@H](N(C)C)C3)c(C(F)(F)F)c2)cc1Nc1nccc(-c2cncnc2)n1 [bafetinib]
Summary of the method: (§1)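 K562 cells at 2×10^6 cells/mL were treated with 10 μM compound for 30 min. Aliquots were heated for 3 min across 48°C-58°C, pooled, and extracted in PBS with 0.5% NP-40 at 4°C; soluble protein was the supernatant after 21,000xg for 90 min. Soluble protein was quantified by TMTpro 16plex LC-MS/MS with channel sums equalised, and reported as log2 fold change in thermal stability against DMSO controls, with values from duplicates.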

nilotinib = compound: Cc1cn(-c2cc(NC(=O)c3ccc(C)c(Nc4nccc(-c5cccnc5)n4)c3)cc(C(F)(F)F)c2)cn1 [nilotinib]
Summary of the method: as §1

[1] = compound: Cc1nc(Nc2n[nH]c3c2CN(C(=O)N[C@H](CN(C)C)c2ccccc2)C3(C)C)c2sccc2n1
Summary of the method: as §1

dasatinib = compound: Cc1nc(Nc2ncc(C(=O)Nc3c(C)cccc3Cl)s2)cc(N2CCN(CCO)CC2)n1 [dasatinib]
Summary of the method: as §1

[2] = compound: Cc1ncc(-c2ccnc(Nc3ccc(S(C)(=O)=O)cc3)n2)n1C(C)C
Summary of the method: as §1

[3] = compound: Cn1cc(-c2ccc3c(c2)CCN3C(=O)Cc2cccc(C(F)(F)F)c2)c2c(N)ncnc21
Summary of the method: as §1

[4] = compound: Cn1cc(-c2ccc3nnc(C(F)(F)c4ccc5ncccc5c4)n3n2)cn1
Summary of the method: as §1

tipifarnib = compound: Cn1cncc1[C@@](N)(c1ccc(Cl)cc1)c1ccc2c(c1)c(-c1cccc(Cl)c1)cc(=O)n2C [tipifarnib]
Summary of the method: as §1

mubritinib = compound: FC(F)(F)c1ccc(/C=C/c2nc(COc3ccc(CCCCn4ccnn4)cc3)co2)cc1 [mubritinib]
Summary of the method: as §1

[5] = compound: Cc1cccc(CC(=O)N2CCc3c2ccc(-c2cn(C)c4ncnc(N)c24)c3F)n1
Summary of the method: as §1

Measured: log2 fold change

TKT, A0A0B4J1R6
inactive: bafetinib 0.078 | nilotinib 0.075 | [1] -0.003 | dasatinib 0.117 | [2] -0.033 | [3] -0.058 | [4] 0.152 | tipifarnib 0.204 | mubritinib 0.042

TIPIN (UniProt Q9BVW5)
inactive: bafetinib -0.07 | [5] 0.093 | nilotinib -0.013 | [1] 0.031 | dasatinib 0.026 | [2] -0.019 | [3] -0.07 | tipifarnib 0.074 | mubritinib 0.036

TCF20 (UniProt Q9UGU0)
inactive: bafetinib -0.143 | [5] 0.072 | [3] 0 | [4] -0.133

THOP1 (UniProt P52888)
inactive: bafetinib -0.002 | [5] 0 | nilotinib 0.014 | [1] 0.011 | dasatinib 0 | [2] -0.001 | [3] 0.033 | [4] 0.019 | tipifarnib -0.016 | mubritinib 0.011

TF (UniProt P02787)
inactive: bafetinib 0.016 | [5] -0.095 | nilotinib 0.042 | [1] -0.029 | dasatinib 0.131 | [2] 0.486 | [3] 0.198 | [4] -0.05 | tipifarnib -0.066 | mubritinib -0.393

TIMM9 (UniProt Q9Y5J7)
inactive: bafetinib -0.034 | [5] 0.062 | nilotinib -0.002 | [1] 0.004 | dasatinib 0.025 | [2] -0.046 | [3] 0.148 | [4] 0.317 | tipifarnib 0.037 | mubritinib 0.055

TFDP1 (UniProt Q14186)
inactive: bafetinib -0.039 | [5] -0.045 | nilotinib -0.017 | [1] -0.14 | [2] 0.177 | [4] -0.072 | tipifarnib -0.024 | mubritinib 0.037

THOC2 (UniProt Q8NI27)
inactive: bafetinib 0.021 | [5] 0.006 | nilotinib -0.041 | [1] -0.089 | dasatinib -0.032 | [2] -0.023 | [3] -0.081 | [4] -0.049 | tipifarnib 0.08 | mubritinib -0.002

TBC1D22A (UniProt Q8WUA7)
inactive: bafetinib -0.078 | [5] 0.05 | nilotinib 0.019 | [1] -0.039 | dasatinib 0.009 | [2] 0.001 | [3] 0.027 | [4] 0.035 | tipifarnib 0.042 | mubritinib 0.039

TFR2 (UniProt Q9UP52)
active: bafetinib -0.226
inactive: [5] -0.012 | nilotinib 0.012 | [1] -0.074 | dasatinib 0.006 | [2] -0.026 | [3] -0.019 | [4] 0.054 | tipifarnib 0.025 | mubritinib 0.041

TBL2 (UniProt Q9Y4P3)
inactive: bafetinib 0.156 | [5] 0.002 | nilotinib -0.084 | [1] 0 | dasatinib 0.014 | [2] 0.01 | [3] -0.139 | [4] -0.079 | tipifarnib 0.017 | mubritinib -0.07

TFRC (UniProt P02786)
active: bafetinib -0.277
inactive: [5] -0.038 | nilotinib -0.005 | [1] -0.043 | dasatinib 0.009 | [2] -0.018 | [3] 0.012 | [4] 0.027 | tipifarnib -0.004 | mubritinib 0.052

TFPI (UniProt P10646)
inactive: bafetinib 0.091 | [5] -0.117 | nilotinib 0.034 | [1] 0.055 | dasatinib 0.134 | [2] -0.062 | [3] -0.066 | [4] -0.031 | mubritinib -0.146

TBC1D20 isoform 3 (UniProt Q96BZ9)
inactive: bafetinib -0.03 | [5] -0.083 | nilotinib 0.07 | [1] -0.023 | [2] 0.033 | [3] 0.121 | [4] 0.233 | tipifarnib -0.077 | mubritinib 0.129

TBP (UniProt P20226)
inactive: bafetinib -0.039 | nilotinib 0.008 | [1] 0.093 | dasatinib 0.104 | [2] 0.079 | [3] -0.112 | [4] 0.036 | tipifarnib 0.013 | mubritinib 0.004

TECR (UniProt Q9NZ01)
inactive: bafetinib -0.133 | [5] 0.057 | nilotinib -0.123 | [1] -0.035 | dasatinib -0.109 | [2] 0.021 | [3] -0.006 | [4] -0.012 | tipifarnib -0.135 | mubritinib 0.016

TK2 isoform 6 (UniProt O00142)
inactive: bafetinib -0.174 | [5] -0.172 | nilotinib -0.004 | [1] 0.114 | dasatinib 0.034 | [2] 0.007 | [3] -0.065 | [4] 0.006 | mubritinib -0.002

THG1L (UniProt Q9NWX6)
inactive: bafetinib 0.016 | [5] 0.006 | nilotinib -0.035 | [1] 0.024 | dasatinib -0.009 | [2] 0.008 | [3] 0.06 | [4] 0.031 | tipifarnib -0.011 | mubritinib 0.033

TFAP4 (UniProt Q01664)
inactive: bafetinib 0.108 | [5] 0.001 | nilotinib -0.01 | [1] -0.103 | [2] -0.182 | [3] 0.098 | [4] -0.034 | tipifarnib 0.001

THBS1 (UniProt P07996)
inactive: bafetinib -0.29 | [5] -0.071 | nilotinib 0.042 | [1] 0.019 | dasatinib 0.022 | [2] 0.243 | [3] 0.2 | [4] 0.005 | tipifarnib 0.116 | mubritinib -0.156

TLE3 isoform 4 (UniProt Q04726)
inactive: bafetinib -0.031 | [5] -0.016 | nilotinib 0.02 | [1] 0.007 | dasatinib 0.095 | [2] -0.012 | [3] 0.017 | [4] 0.013 | tipifarnib -0.023 | mubritinib 0.031

THUMPD3 (UniProt Q9BV44)
inactive: bafetinib -0.049 | [5] 0.189 | nilotinib 0.007 | [1] -0.029 | dasatinib -0.016 | [2] -0.03 | [3] 0.054 | [4] 0.01 | tipifarnib -0.057 | mubritinib 0.074

TELO2 (UniProt Q9Y4R8)
inactive: bafetinib 0.069 | [5] 0.158 | nilotinib -0.023 | [1] -0.041 | dasatinib -0.039 | [2] 0.039 | [3] -0.058 | [4] 0.046 | tipifarnib -0.185 | mubritinib 0.103

TK1 (UniProt P04183)
inactive: bafetinib -0.04 | [5] -0.028 | nilotinib -0.002 | [1] 0.028 | dasatinib 0.032 | [2] -0.036 | [3] 0.015 | [4] 0 | tipifarnib 0 | mubritinib 0.056

TFG (UniProt Q92734)
inactive: bafetinib -0.059 | [5] -0.021 | nilotinib 0.011 | [1] 0.008 | dasatinib 0.045 | [2] 0.009 | [3] -0.039 | [4] -0.046 | tipifarnib 0.006 | mubritinib 0.033

2 records picked at random from the list so far, as already listed:
TKT, A0A0B4J1R6
inactive: bafetinib 0.078 | nilotinib 0.075 | [1] -0.003 | dasatinib 0.117 | [2] -0.033 | [3] -0.058 | [4] 0.152 | tipifarnib 0.204 | mubritinib 0.042

TBP (UniProt P20226)
inactive: bafetinib -0.039 | nilotinib 0.008 | [1] 0.093 | dasatinib 0.104 | [2] 0.079 | [3] -0.112 | [4] 0.036 | tipifarnib 0.013 | mubritinib 0.004

Continuation:

TFAM (UniProt Q00059)
inactive: bafetinib 0.034 | [5] 0.013 | nilotinib -0.025 | [1] 0.023 | dasatinib 0.077 | [2] 0.003 | [3] -0.048 | [4] -0.038 | tipifarnib 0.039 | mubritinib -0.068

TGFBI (UniProt Q15582)
inactive: bafetinib -0.241 | [5] 0.148 | nilotinib -0.099 | [1] 0.054 | dasatinib -0.04 | [2] 0.167 | [3] 0.197 | [4] 0.098 | tipifarnib -0.063 | mubritinib -0.02

THOC6 (UniProt Q86W42)
inactive: bafetinib -0.017 | [5] -0.025 | nilotinib -0.007 | [1] -0.034 | dasatinib 0.014 | [2] -0.033 | [3] 0.055 | [4] -0.076 | tipifarnib -0.009 | mubritinib -0.012

THADA (UniProt Q6YHU6)
inactive: bafetinib 0 | [5] 0.027 | nilotinib -0.068 | [1] 0.045 | dasatinib -0.15 | [2] -0.028 | [3] 0.098 | [4] 0.055 | tipifarnib -0.1 | mubritinib 0.123

TBCA (UniProt O75347)
inactive: bafetinib -0.038 | [5] -0.046 | nilotinib -0.015 | [1] -0.018 | dasatinib 0.047 | [2] -0.032 | [3] -0.009 | [4] -0.003 | tipifarnib 0.025 | mubritinib 0.028

TGS1 (UniProt Q96RS0)
inactive: bafetinib 0.027 | nilotinib -0.099 | [1] -0.177 | dasatinib -0.064 | [2] -0.138 | [3] -0.247 | [4] 0.029 | tipifarnib 0.029 | mubritinib -0.21

TKT isoform 2 (UniProt P29401)
inactive: bafetinib -0.013 | [5] 0.012 | nilotinib 0.037 | [1] -0.01 | dasatinib 0.031 | [2] 0.002 | [3] 0.004 | [4] 0.007 | tipifarnib -0.014 | mubritinib 0.017

TBC1D17 (UniProt Q9HA65)
inactive: bafetinib -0.231 | [5] 0.001 | nilotinib -0.119 | [1] 0.045 | dasatinib -0.065 | [2] 0.094 | [3] -0.048 | [4] -0.183 | mubritinib 0.02

TEX2 isoform 2 (UniProt Q8IWB9)
inactive: bafetinib 0.094 | [5] 0.045 | dasatinib -0.049 | [3] 0.026 | [4] 0.065 | tipifarnib 0.028 | mubritinib 0.149

TCF25 (UniProt Q9BQ70)
inactive: [5] 0.038 | [3] -0.132 | [4] -0.104 | tipifarnib 0.019 | mubritinib -0.041

TCP11L1 (UniProt Q9NUJ3)
inactive: nilotinib -0.22 | [1] 0.045 | dasatinib -0.273 | [2] -0.055 | tipifarnib -0.062 | mubritinib 0.105
